Data from doi:10.1101/575241.

B1: ^HisUbc13 (enzyme, UniProt P52490 1-153)
chain: MASLPKRIIKETEKLVSDPVPGITAEPHDDNLRYFQVTIEGPEQSPYEDGIFELELYLPDDYPMEAPKVRFLTKIYHPNIDRLGRICLDVLKTNWSPALQIRTVLLSIQALLASPNPNDPLANDVAEDWIKNEQGAKAKAREWTKLYAKKKPE
B2: Ubc13 (enzyme, UniProt P52490 1-153)
chain: B1 chain
B3: Mms2 (protein, UniProt P53152 1-137)
chain: MSKVPRNFRLLEELEKGEKGFGPESCSYGLADSDDITMTKWNGTILGPPHSNHENRIYSLSIDCGPNYPDSPPKVTFISKINLPCVNPTTGEVQTDFHTLRDWKRAYTMETLLLDLRKEMATPANKKLRQPKEGETF
B4: ^HisCdc34 (enzyme, UniProt P14682 1-295)
chain: MSSRKSTASSLLLRQYRELTDPKKAIPSFHIELEDDSNIFTWNIGVMVLNEDSIYHGGFFKAQMRFPEDFPFSPPQFRFTPAIYHPNVYRDGRLCISILHQSGDPMTDEPDAETWSPVQTVESVLISIVSLLEDPNINSPANVDAAVDYRKNPEQYKQRVKMEVERSKQDIPKGFIMPTSESAYISQSKLDEPESNKDMADNFWYDSDLDDDENGSVILQDDDYDDGNNHIPFEDDDVYNYNDNDDDDERIEFEDDDDDDDDSIDNDSVMDRKQPHKAEDESEDVEDVERVSKKI

Key:
[1] = biological target: ^GSTPib1ΔFYVE (S. cerevisiae); assay: pull-down
[2] = biological target: S. pombe Pib1 (aa 123-279) (S. pombe); assay: two-hybrid

Row | Binder | binding [1] | binding [2]
1 | B1 | binds | 
2 | B2 |  | binds
3 | B3 |  | binds weakly
4 | B4 | no binding (tested: 100 pmol) | 

These are yes or no findings as the source states them, for the method shown. A result given as binding can be weak or reduced; the word gives no strength. For some of these results: Where a sequence is shown, tags or fusion partners need not be part of it.
